In article PMC10023806:
No constants are given. Whether binding was seen depends on the method and setting. In cells and extracts the contact can be indirect. Some results given as binding are weak or reduced against the parent protein; the word gives no strength. Tags and fused reporters may be left off the sequences shown.

Sequences of proteins named here, by UniProt entry; tags and fusion partners are left off.
UniProt Q9H8M2: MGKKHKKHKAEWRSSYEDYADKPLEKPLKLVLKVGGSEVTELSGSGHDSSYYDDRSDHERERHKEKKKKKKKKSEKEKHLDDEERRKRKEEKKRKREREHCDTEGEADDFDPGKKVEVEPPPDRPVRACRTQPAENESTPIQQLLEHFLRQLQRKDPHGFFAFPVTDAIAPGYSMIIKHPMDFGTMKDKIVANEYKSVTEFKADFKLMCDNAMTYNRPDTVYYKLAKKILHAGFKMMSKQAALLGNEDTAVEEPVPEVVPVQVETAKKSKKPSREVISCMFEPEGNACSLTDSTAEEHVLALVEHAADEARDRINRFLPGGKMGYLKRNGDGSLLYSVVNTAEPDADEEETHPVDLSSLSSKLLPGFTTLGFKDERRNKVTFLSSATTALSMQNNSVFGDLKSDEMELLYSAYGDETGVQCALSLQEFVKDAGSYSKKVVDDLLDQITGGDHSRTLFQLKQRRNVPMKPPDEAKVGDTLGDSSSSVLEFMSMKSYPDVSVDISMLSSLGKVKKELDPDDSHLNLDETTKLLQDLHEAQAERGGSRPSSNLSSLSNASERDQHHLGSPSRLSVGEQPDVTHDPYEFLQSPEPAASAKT

Columns and labels:
[1] = molecular target: T1, FLAG-BirA*-MCIDAS (human) (UniProt D6RGH6); assay: proximity ligation; Duolink PLA in transfected HeLa cells, fixed and permeabilised; BRD9 (rabbit) and FLAG (mouse) primary antibodies
T1 sequence: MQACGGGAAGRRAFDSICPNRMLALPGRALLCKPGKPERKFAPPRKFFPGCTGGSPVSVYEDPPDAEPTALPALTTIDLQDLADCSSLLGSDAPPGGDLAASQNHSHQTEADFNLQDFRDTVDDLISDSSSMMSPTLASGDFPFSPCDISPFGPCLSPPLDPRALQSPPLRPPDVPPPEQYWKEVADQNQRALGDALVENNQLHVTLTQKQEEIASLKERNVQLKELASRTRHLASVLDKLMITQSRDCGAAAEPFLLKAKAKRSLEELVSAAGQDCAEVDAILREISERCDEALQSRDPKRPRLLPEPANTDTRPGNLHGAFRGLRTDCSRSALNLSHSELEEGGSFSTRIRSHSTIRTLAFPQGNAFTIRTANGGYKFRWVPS

[2] = molecular target: T1, FLAG-BirA*-MCIDAS (human); assay: proximity ligation; PLA with FLAG and BRD9 antibodies in doxycycline-induced DBTRG-05MG cells at Day 3 and Day 7, counterstained with acetylated tubulin; with or without dBRD9

BRD9 (from UniProt Q9H8M2 1-597)
binding [1]: binds
binding [2]: binds
